Values from PubChem BioAssay AID1259254 (NCATS, 2017)
The deposit covers about 59,000 reagents; below is an unselected part. Of all reagents, about 1,550 (2.6%) were called active. 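G2 share is only a proxy for re-replication; each gene was hit by three separate siRNAs, and active genes were retested.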 Unmarked entries are inactive. Reagents against one gene are numbered here. Not all columns of the deposit are shown. Not stated in the record: the amount of reagent.

- Test: 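Genome-wide screen for genes that prevent DNA re-replication in cancer cells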 (primary screen)
- Cell system: human HCT116 colorectal cancer cells
- Reagent: single siRNA against human genes
- Timing: 3 days
- Measurement: 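Nuclei stained with Hoechst and imaged; cell-cycle phase assigned by DNA content; G2 share scaled per plate, non-targeting siRNA 0%, GMNN siRNA 100%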
- Reading the numbers: G2 robust z-score: higher = more G2 cells, more excess DNA replication
- Hit rule: 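Active siRNAs have a G2 robust z of 5 or more median absolute deviations over the median, which in these data means about 38% or higher of GMNN control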

target | reagent no. | G2 robust z-score
B3GNT7 | 1 | 0.207
B3GNT7 | 2 | -0.637
B3GNT7 | 3 | -0.321
GRIFIN | 1 | -0.55
GRIFIN | 2 | 0.312
GRIFIN | 3 | -0.758
FAM149A | 1 | -1.04
FAM149A | 2 | -0.354
FAM149A | 3 | -0.0291
ZSWIM4 | 1 | 0.7
ZSWIM4 | 2 | 0.105
ZSWIM4 | 3 | -0.283
SLC36A1 | 1 | 1.3
SLC36A1 | 2 | 1.01
SLC36A1 | 3 | 1.77
EIF1AY | 1 | -0.28
EIF1AY | 2 | -1.11
EIF1AY | 3 | 1.94
RABGAP1 | 1 | 2.57
RABGAP1 | 2 | 1.86
RABGAP1 | 3 | 1.85
CATSPERG | 1 | 0.954
CATSPERG | 2 | -0.552
CATSPERG | 3 | -0.186
OR4C45 | 1 | -0.132
OR4C45 | 2 | 1.73
OR4C45 | 3 | 0.199

Records above whose gene name starts with F or f (3):
target | reagent no. | G2 robust z-score
FAM149A | 1 | -1.04
FAM149A | 2 | -0.354
FAM149A | 3 | -0.0291

Additional reagents follow:
target | reagent no. | G2 robust z-score
RECK | 1 | -0.664
RECK | 2 | -0.728
RECK | 3 | -0.677
FAM90A20 | 1 | -0.269
FAM90A20 | 2 | -1.14
FAM90A20 | 3 | 1.59
SPSB1 | 1 | 1.37
SPSB1 | 2 | 11.1 (active)
SPSB1 | 3 | -1.52
SLC12A1 | 1 | -0.44
SLC12A1 | 2 | 1.68
SLC12A1 | 3 | -1.11
RAB3GAP2 | 1 | 0.988
RAB3GAP2 | 2 | -0.688
RAB3GAP2 | 3 | -0.0483
UPK1B | 1 | 0.415
UPK1B | 2 | 1.28
UPK1B | 3 | 2.8
MCFD2 | 1 | 2.32
MCFD2 | 2 | 1.48
MCFD2 | 3 | -1.21
HR | 1 | 0.262
HR | 2 | 0.256
HR | 3 | -0.603
RUBCNL | 1 | -0.549
RUBCNL | 2 | -0.427
RUBCNL | 3 | 0.218
CTCF | 1 | -0.657
CTCF | 2 | 3.6
CTCF | 3 | 0.628
MSMB | 1 | -0.273
MSMB | 2 | -0.678
MSMB | 3 | -0.155
MESP2 | 1 | -0.544
MESP2 | 2 | 0.385
MESP2 | 3 | -0.925
DENND10 | 1 | 1.3
DENND10 | 2 | 0.944
DENND10 | 3 | 2.67
POLR3B | 1 | 0.443
POLR3B | 2 | -0.486
POLR3B | 3 | -0.878
